# The supplement of paper PMC10338343
# ± gives the standard deviation. The entries are a selection whose mix differs from that of the whole data set. The uncertainty is large for many entries.
# Tests used:
# [1] = tested on: MILI (PIWIL2) piRISC loaded with L1MC piRNA (26 nt); test: pre-steady-state target cleavage rate (min^-1); MIWI and MILI are mouse PIWI proteins and EfPiwi is from a freshwater sponge; tags in brackets are library labels; higher = faster piRNA-guided slicing of the target; details: guide: L1MC piRNA 5'p-UAACUAAAUACUAUGCAAGCUGUAGG
# How it was run: (§1)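 Cleave-'n-Seq used a transcribed, DNA-blocked target RNA library at 0.1 nM and active affinity-purified piRISC with one synthetic guide at 1 nM, with or without 500 nM GTSF1 partner protein, in HEPES–potassium acetate buffer at 33 °C for 0–8 or 0–960 min. Uncleaved targets were sequenced and normalised to depth and to weakly complementary targets, and three trials were pooled with k3 capped at 0.0001 min^-1. The pre-steady-state cleavage rate was estimated by a burst-and-steady-state fit.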
# [2] = tested on: MIWI (PIWIL1) piRISC loaded with L1MC piRNA (30 nt); test: as above; details: guide: L1MC piRNA 5'p-UAACUAAAUACUAUGCAAGCUGUAGGUCCU
# How it was run: as §1
# [3] = auxiliary factor: none (no GTSF1)
# [4] = auxiliary factor: 500 nM mouse GTSF1
Sequence,"pre-steady-state target cleavage rate [1, 3]","pre-steady-state target cleavage rate [2, 3]","pre-steady-state target cleavage rate [1, 4]","pre-steady-state target cleavage rate [2, 4]"
UCCUCCUACAGCUUGCAUAGAUAUUUCAAA,0.000745 ± 0.0055,0.000566 ± 0.0083,,
UCCUGGUACAGCUUGCUAUAGUAUUUAGUUA,0.00179 ± 0.0038,0.00278 ± 0.0038,,
UCCUCCUACAGCUUGCAUAGUAUGUAGUUA,0.000844 ± 0.0075,0.00302 ± 0.0038,,
UCCUGGUACAGCUUGCAUAGAAUUUUCAAA,0.00121 ± 0.0073,0.000557 ± 0.0068,,
UCCUCCUACAGCUUGCAAUCUAUUUAGAAA,0.000626 ± 0.0075,0.000821 ± 0.0063,,
UCCUGCUACAGCUUGCAAUAGUAUUUAGUUA,0.00179 ± 0.0045,0.0013 ± 0.0049,,
UCCUGGAUGUCGAACGUAAGAUUUUAGUUA,0.00011 ± 0.025,0.000295 ± 0.012,,
UCCUGGUACAGCUUGCAUAGUAUAUAGAAA,0.000881 ± 0.0071,0.00167 ± 0.0048,,
UCCUGGAUGUCGAAGCAUAGAAAUUAGUUA,0.000194 ± 0.022,0.000232 ± 0.0084,,
UCCUGGAUGUCGAACGUAUCGAUUUAGUUA,,0.000159 ± 0.023,0.000113 ± 0.056,
UCCUGCUUCAGCUUCCAUAGUAUUUAGUUA,0.00123 ± 0.006,0.00253 ± 0.0026,,
UCCUGGAUCAGCUUGCAAUCUAUUUAGUAA,0.000684 ± 0.0073,0.00159 ± 0.0041,,
UCCUGGAUGUCGAAGCAUAGUUUUAAGUUA,0.000753 ± 0.007,0.000598 ± 0.0083,,
UCCUGGAUGUCGAACGUUAGUAUUAUGUUA,0.000348 ± 0.014,0.00025 ± 0.024,,
UCCUGGUACAGCUUGCAAUGUAUUUUCAAA,0.00107 ± 0.0076,0.000894 ± 0.0086,,
UCCUGGAUGUCGAACCAUAUAUUUAGUUA,0.000168 ± 0.03,0.000475 ± 0.0095,,
UCCUGCUUCAGCUUGCAUAGUAUUUUCAAA,0.00131 ± 0.005,0.00224 ± 0.0043,,
UCCUCCUACAGGAUGCAUAGUAUUUUCAAA,0.000604 ± 0.0087,0.0005 ± 0.011,,
UCCUGGAUCAGCUUGCUAAGUAUUUAGUAA,0.00186 ± 0.0029,0.00201 ± 0.0028,,
UCCUGGAUGUCGAACGUAAGUAUUUAGUUC [g2:g12:cont:t1C],< 0.0001,,,0.000109 ± 0.05
UCCUGGUACAGCUUGCAUAGAUAUUACAAA,0.000743 ± 0.009,0.000675 ± 0.011,,
UCCUGGAUGAGCUUGCAAUCAUAAAUCAAA [g14:g21:cont:t1A],0.000276 ± 0.019,0.000303 ± 0.019,,
UCCUGGAUGUCGAACGUAUCUAUUUAGUUU [g2:g10:cont:t1U],0.000117 ± 0.018,,,0.000179 ± 0.023
UCCUGGAUCAGCUUGGUAAGUAUUUACAAA,0.00059 ± 0.0088,0.000777 ± 0.0086,,

# At a glance, part of the list above.
Sequence,"pre-steady-state target cleavage rate [1, 3]","pre-steady-state target cleavage rate [2, 3]","pre-steady-state target cleavage rate [1, 4]","pre-steady-state target cleavage rate [2, 4]"
UCCUGGUACAGCUUGCAUAGAUAUUACAAA,0.000743 ± 0.009,0.000675 ± 0.011,,
UCCUGGAUGAGCUUGCAAUCAUAAAUCAAA [g14:g21:cont:t1A],0.000276 ± 0.019,0.000303 ± 0.019,,
UCCUGGAUGUCGAACGUAUCUAUUUAGUUU [g2:g10:cont:t1U],0.000117 ± 0.018,,,0.000179 ± 0.023
UCCUGGAUCAGCUUGGUAAGUAUUUACAAA,0.00059 ± 0.0088,0.000777 ± 0.0086,,

# (continued)

Sequence,"pre-steady-state target cleavage rate [1, 3]","pre-steady-state target cleavage rate [2, 3]","pre-steady-state target cleavage rate [1, 4]","pre-steady-state target cleavage rate [2, 4]"
UCCUGGAUGUCGAUGCAAAGUAUUUAGUAA,,0.000817 ± 0.01,0.00334 ± 0.0047,
UCCUGGAUGUCGUUGCAAAGUAUUUACUUA,,0.000357 ± 0.025,0.000318 ± 0.022,
UCCUGGAUGUCGAACGUAUCUAAAAAGUUA,0.000217 ± 0.018,0.000103 ± 0.021,,
UCCUGGAUGUCGAACCAUAGUUUUUACUUA,,0.000254 ± 0.016,0.000281 ± 0.025,0.000153 ± 0.035
UCCUGGAUGUCGAACGAUAGUUUUAGUUA,0.000134 ± 0.031,0.000291 ± 0.018,,
UCCUCCUACAGCUUGCAUACAUUUUAGAAA,0.000545 ± 0.0069,0.000259 ± 0.011,,
UCCUGGAUGUGCUUGCUAAGUAUUUAGUAA,0.00108 ± 0.0059,0.000855 ± 0.0074,,0.00179 ± 0.0065
UCCUGGAUGUGCUAGCAUAGUAUUAAGUUA,0.00214 ± 0.0037,0.00302 ± 0.0039,,
UCCUGGAUGUCCUACCAUAGUAUUUAGUAA,0.00059 ± 0.0095,0.001 ± 0.006,,0.00295 ± 0.0048
UCCUGGAUGUCGAACGGUAGUAUUUAGUUA,,,0.000153 ± 0.03,0.000256 ± 0.02
UCCUGGAUGUCGAACCUUACUAUUUAGUUA,0.00028 ± 0.012,0.000312 ± 0.013,,
UCCUCCUACAGCUUCCAUAGUAAUUAGUUA,0.000628 ± 0.0092,0.00125 ± 0.0046,,
UCCUGGAUGUCCUUGCAUAGUAUUUAGUCUA,0.00191 ± 0.0048,0.00288 ± 0.003,,
UCCUGGUACAGCUACGAUAGUAUUUUCAAA,0.00116 ± 0.0074,0.000533 ± 0.0099,,
UCCUGGUACAGCUUGCAUUCUAUUUUCAAA,0.000931 ± 0.01,0.000284 ± 0.013,,0.000456 ± 0.025
UCCUGGAUGACGAUGCAUAGUAUUUAGAAA,0.00115 ± 0.0073,0.00154 ± 0.0052,,
UCCUGGAUGUCGAACCAUAGUAUUUAGUA,,0.000494 ± 0.0075,0.000189 ± 0.017,0.000142 ± 0.028
UCCUCCUACAGCAAGCAUAGUAUUUAGUAA,0.00281 ± 0.0029,0.00166 ± 0.0032,,
UCCUGGUACAGCUUGCAUAGUAUUUUCAUA,0.00207 ± 0.0046,0.00236 ± 0.0032,,
UCCUGGAUGUCGAACGUAUCUAUUAUGUUA,0.000278 ± 0.016,0.000301 ± 0.019,,
UCCUGGAUGUCGAACCAUAGUUUUUAGAUA,0.000339 ± 0.011,0.000231 ± 0.019,,0.000397 ± 0.011
UCCUGGUACACGAUGCAUAGUAUUUUCAAA,0.00208 ± 0.0049,0.00153 ± 0.0072,,0.00195 ± 0.0069
UCCUGGAUGUCGAACGUAAGUAUUUAGUAA,,,0.000346 ± 0.018,0.000104 ± 0.069
UCCUGGAUGUCGAACGAUAGUUAUUUAGUUA,,0.00037 ± 0.011,0.0003 ± 0.023,0.000271 ± 0.015
